Values are relative to the signal before dosing, not to a vehicle control; the signal also falls without drug.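 Fibroblast labels denote human fibroblasts, mainly primary ones from uterus (C12385, HUF), lung (H6013), bone (Hs27A), adrenal (HADF) and skin (WS1), plus mammary HMF and breast cancer-associated Hs343T. Cancer cells are basal-like or mesenchymal-like triple-negative breast cancer lines. A hit is a response shift exceeding 3x replicate standard deviation. The tissue of the other fibroblasts is not given here.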
Tested on: BT20
Test: relative JC-1 red fluorescence (viability) vs pre-drug, coculture with fibroblast (fraction); higher = more viable cancer cells
Procedure: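 JC-1 labelled TNBC cells cocultured 1:1 (1,500 cells each) with CellTrace Violet stained primary or stromal fibroblasts in 384-well plates in FluoroBrite medium, treated with one of 42 anticancer drugs at 0.1, 1, 10 or 100 uM. JC-1 red fluorescence (mitochondrial integrity in cancer cells only) was read by plate reader every 8 h for 72 h. Values are normalised to each well's pre-drug value. The stock of one drug was tenfold lower, so its dose labels may be too high.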

N#Cc1ccc(C(c2ccc(C#N)cc2)n2cncn2)cc1 [Letrozole]
relative JC-1 red fluorescence
Conditions | 8 h | 16 h | 24 h | 32 h | 40 h | 48 h | 56 h | 64 h | 72 h
10 µM, coculture fibroblast: C12385 | 0.873 | 0.837 | 0.801 | 0.789 | 0.728 | 0.7 | 0.668 | 0.647 | 0.629
10 µM, coculture fibroblast: H6013 | 0.942 | 0.882 | 0.836 | 0.787 | 0.737 | 0.707 | 0.704 | 0.689 | 0.668
10 µM, coculture fibroblast: H6019 | 0.846 | 0.772 | 0.754 | 0.691 | 0.636 | 0.607 | 0.564 | 0.532 | 0.506
10 µM, coculture fibroblast: H6076 | 0.809 | 0.937 | 0.844 | 0.818 | 0.794 | 0.769 | 0.7646 | 0.7559 | 0.736
10 µM, coculture fibroblast: H6231 | 0.765 | 0.897 | 0.805 | 0.73 | 0.686 | 0.626 | 0.575 | 0.54764 | 0.5189
10 µM, coculture fibroblast: HADF | 0.9754 | 0.916 | 0.834 | 0.80896 | 0.7707 | 0.725 | 0.711 | 0.6896 | 0.652
10 µM, coculture fibroblast: HCFa | 0.9603 | 0.924 | 0.875 | 0.833 | 0.797 | 0.768 | 0.741 | 0.717 | 0.699
10 µM, coculture fibroblast: HCPF | 0.945 | 0.922 | 0.861 | 0.817 | 0.774 | 0.724 | 0.6774 | 0.6569 | 0.619
10 µM, coculture fibroblast: HHSteC | 0.918 | 0.865 | 0.802 | 0.719 | 0.673 | 0.632 | 0.605 | 0.574 | 0.548
10 µM, coculture fibroblast: HMF | 0.797 | 0.9381 | 0.8089 | 0.722 | 0.669 | 0.616 | 0.568 | 0.523 | 0.484
10 µM, coculture fibroblast: HPFa | 0.954 | 0.9162 | 0.912 | 0.8286 | 0.79646 | 0.7492 | 0.7133 | 0.677 | 0.623
10 µM, coculture fibroblast: HUF | 0.9174 | 0.8664 | 0.846 | 0.771 | 0.724 | 0.689 | 0.663 | 0.649 | 0.632
10 µM, coculture fibroblast: Hs5 | 0.953 | 0.899 | 0.885 | 0.859 | 0.833 | 0.813 | 0.805 | 0.783 | 0.774
10 µM, coculture fibroblast: Hs27A | 0.808 | 0.948 | 0.885 | 0.87 | 0.805 | 0.764 | 0.742 | 0.707 | 0.655
10 µM, coculture fibroblast: Hs343T | 0.789 | 0.9227 | 0.804 | 0.733 | 0.679 | 0.62 | 0.559 | 0.526 | 0.487
10 µM, coculture fibroblast: WS1 | 0.846 | 0.775 | 0.726 | 0.668 | 0.599 | 0.568 | 0.531 | 0.492 | 0.475
100 µM, coculture fibroblast: C12385 | 0.896 | 0.819 | 0.771 | 0.713 | 0.656 | 0.619 | 0.587 | 0.559 | 0.536
100 µM, coculture fibroblast: H6013 | 0.9611 | 0.905 | 0.918 | 0.927 | 0.913 | 0.914 | 0.922 | 0.878 | 0.808
100 µM, coculture fibroblast: H6019 | 0.875 | 0.835 | 0.782 | 0.724 | 0.679 | 0.654 | 0.611 | 0.58 | 0.556
100 µM, coculture fibroblast: H6076 | 0.852 | 0.9249 | 0.843 | 0.816 | 0.772 | 0.741 | 0.716 | 0.704 | 0.678
100 µM, coculture fibroblast: H6231 | 0.824 | 0.9617 | 0.8535 | 0.802 | 0.754 | 0.704 | 0.672 | 0.646 | 0.614
100 µM, coculture fibroblast: HADF | 0.897 | 0.9366 | 0.825 | 0.822 | 0.7852 | 0.748 | 0.72 | 0.697 | 0.66
100 µM, coculture fibroblast: HCFa | 0.9358 | 0.867 | 0.823 | 0.768 | 0.7112 | 0.6863 | 0.65 | 0.633 | 0.597
100 µM, coculture fibroblast: HCPF | 0.939 | 0.895 | 0.817 | 0.762 | 0.716 | 0.678 | 0.6301 | 0.614 | 0.574
100 µM, coculture fibroblast: HHSteC | 0.951 | 0.889 | 0.911 | 0.849 | 0.811 | 0.78 | 0.756 | 0.735 | 0.706
100 µM, coculture fibroblast: HMF | 0.882 | 0.907 | 0.8004 | 0.74386 | 0.6978 | 0.661 | 0.627 | 0.599 | 0.565
100 µM, coculture fibroblast: HPFa | 0.954 | 0.866 | 0.853 | 0.773 | 0.734 | 0.685 | 0.652 | 0.617 | 0.56
100 µM, coculture fibroblast: HUF | 0.95 | 0.909 | 0.895 | 0.83 | 0.799 | 0.756 | 0.734 | 0.725 | 0.715
100 µM, coculture fibroblast: Hs5 | 0.803 | 0.943 | 0.843 | 0.782 | 0.737 | 0.689 | 0.644 | 0.607 | 0.58
100 µM, coculture fibroblast: Hs27A | 0.806 | 0.793 | 0.939 | 0.956 | 0.9052 | 0.8811 | 0.8487 | 0.806 | 0.757
100 µM, coculture fibroblast: Hs343T | 0.99649 | 0.886 | 0.79 | 0.7389 | 0.686 | 0.6441 | 0.5842 | 0.553 | 0.5115
100 µM, coculture fibroblast: WS1 | 0.8922 | 0.8282 | 0.752 | 0.693 | 0.629 | 0.5911 | 0.542 | 0.499 | 0.469

From the supplement of paper PMC6078165
